Test results: paper PMC10602526
No constants are given. Whether binding was seen depends on the method and setting. Binding seen in cells or lysates may run through a third protein. Here binding means that the protein was enriched with, or labelled near, the bait; the list need not be complete.

Tests used:
[1] = target: SEC23B, FLAG-tagged, expressed in HEK293T cells, Q15437; experiment: affinity purification with mass spectrometry; SEC23B-associated proteins in the presence or absence of OTUD1; FLAG-SEC23B transfected in HEK293T with or without GFP-OTUD1, enriched on anti-FLAG M2 beads, silver-stained gel, mass spectrometry (Figure 6a, S9C); details: remark: other sources report otherwise
[2] = target: SEC23B, FLAG-tagged, expressed in HEK293T cells (UniProt Q15437); experiment: as above

| Binder | binding [1] | binding [2] |
| --- | --- | --- |
| SEC13 found with SEC23B by mass spectrometry, P55735 1-322 (protein) MVSVINTVDTSHEDMIHDAQMDYYGTRLATCSSDRSVKIFDVRNGGQILIADLRGHEGPVWQVAWAHPMYGNILASCSYDRKVIIWREENGTWEKSHEHAGHDSSVNSVCWAPHDYGLILACGSSDGAISLLTYTGEGQWEVKKINNAHTIGCNAVSWAPAVVPGSLIDHPSGQKPNYIKRFASGGCDNLIKLWKEEEDGQWKEEQKLEAHSDWVRDVAWAPSIGLPTSTIASCSQDGRVFIWTCDDASSNTWSPKLLHKFNDVVWHVSWSITANILAVSGGDNKVTLWKESVDGQWVCISDVNKGQGSVSASVTEGQQNEQ | binds | – |
| SEC31A found with SEC23B by mass spectrometry (protein, UniProt O94979 1-1220) MKLKEVDRTAMQAWSPAQNHPIYLATGTSAQQLDATFSTNASLEIFELDLSDPSLDMKSCATFSSSHRYHKLIWGPYKMDSKGDVSGVLIAGGENGNIILYDPSKIIAGDKEVVIAQNDKHTGPVRALDVNIFQTNLVASGANESEIYIWDLNNFATPMTPGAKTQPPEDISCIAWNRQVQHILASASPSGRATVWDLRKNEPIIKVSDHSNRMHCSGLAWHPDVATQMVLASEDDRLPVIQMWDLRFASSPLRVLENHARGILAIAWSMADPELLLSCGKDAKILCSNPNTGEVLYELPTNTQWCFDIQWCPRNPAVLSAASFDGRISVYSIMGGSTDGLRQKQVDKLSSSFGNLDPFGTGQPLPPLQIPQQTAQHSIVLPLKKPPKWIRRPVGASFSFGGKLVTFENVRMPSHQGAEQQQQQHHVFISQVVTEKEFLSRSDQLQQAVQSQGFINYCQKKIDASQTEFEKNVWSFLKVNFEDDSRGKYLELLGYRKEDLGKKIALALNKVDGANVALKDSDQVAQSDGEESPAAEEQLLGEHIKEEKEESEFLPSSGGTFNISVSGDIDGLITQALLTGNFESAVDLCLHDNRMADAIILAIAGGQELLARTQKKYFAKSQSKITRLITAVVMKNWKEIVESCDLKNWREALAAVLTYAKPDEFSALCDLLGTRLENEGDSLLQTQACLCYICAGNVEKLVACWTKAQDGSHPLSLQDLIEKVVILRKAVQLTQAMDTSTVGVLLAAKMSQYANLLAAQGSIAAALAFLPDNTNQPNIMQLRDRLCRAQGEPVAGHESPKIPYEKQQLPKGRPGPVAGHHQMPRVQTQQYYPHGENPPPPGFIMHGNVNPNAAGQLPTSPGHMHTQVPPYPQPQPYQPAQPYPFGTGGSAMYRPQQPVAPPTSNAYPNTPYISSASSYTGQSQLYAAQHQASSPTSSPATSFPPPPSSGASFQHGGPGAPPSSSAYALPPGTTGTLPAASELPASQRTGPQNGWNDPPALNRVPKKKKMPENFMPPVPITSPIMNPLGDPQSQMLQQQPSAPVPLSSQSSFPQPHLPGGQPFHGVQQPLGQTGMPPSFSKPNIEGAPGAPIGNTFQHVQSLPTKKITKKPIPDEHLILKTTFEDLIQRCLSSATDPQTKRKLDDASKRLEFLYDKLREQTLSPTITSGLHNIARSIETRNYSEGLTMHTHIVSTSNFSETSAFMPVLKVVLTQANKLGV | – | binds |
| SEC24A found with SEC23B by mass spectrometry (protein, UniProt O95486 1-1093) MSQPGIPASGGAPASLQAQNGAALASGSPYTNGPVQNALLSSQESVSQGYNFQLPGSYPHPIPAKTLNPVSGQSNYGGSQGSGQTLNRPPVASNPVTPSLHSGPAPRMPLPASQNPATTPMPSSSFLPEANLPPPLNWQYNYPSTASQTNHCPRASSQPTVSGNTSLTTNHQYVSSGYPSLQNSFIKSGPSVPPLVNPPLPTTFQPGAPHGPPPAGGPPPVRALTPLTSSYRDVPQPLFNSAVNQEGITSNTNNGSMVVHSSYDEIEGGGLLATPQLTNKNPKMSRSVGYSYPSLPPGYQNTTPPGATGVPPSSLNYPSGPQAFTQTPLGANHLTTSMSGLSLQPEGLRVVNLLQERNMLPSTPLKPPVPNLHEDIQKLNCNPELFRCTLTSIPQTQALLNKAKLPLGLLLHPFKDLVQLPVVTSSTIVRCRSCRTYINPFVSFLDQRRWKCNLCYRVNDVPEEFLYNPLTRVYGEPHRRPEVQNATIEFMAPSEYMLRPPQPPVYLFVFDVSHNAVETGYLNSVCQSLLDNLDLLPGNTRTKIGFITFDSTIHFYGLQESLSQPQMLIVSDIEDVFIPMPENLLVNLNESKELVQDLLKTLPQMFTKTLETQSALGPALQAAFKLMSPTGGRMSVFQTQLPTLGVGALKPREEPNHRSSAKDIHMTPSTDFYKKLALDCSGQQVAVDLFLLSGQYSDLASLGCISRYSAGSVYYYPSYHHQHNPVQVQKLQKELQRYLTRKIGFEAVMRIRCTKGLSIHTFHGNFFVRSTDLLSLPNVNPDAGYAVQMSVEESLTDTQLVSFQSALLYTSSKGERRIRVHTLCLPVVSTLNDVFLGADVQAISGLLANMAVDRSMTASLSDARDALVNAVIDSLSAYRSSVLSNQQPGLMVPFSLRLFPLFVLALLKQKSFQTGTNARLDERIFAMCQVKNQPLVYLMLTTHPSLYRVDNLSDEGALNISDRTIPQPPILQLSVEKLSRDGAFLMDAGSVLMLWVGKNCTQNFLSQVLGVQNYASIPQPMTDLPELDTPESARIIAFISWLREQRPFFPILYVIRDESPMKANFLQNMIEDRTESALSYYEFLLHIQQQVNK | – | binds |
